Results taken from patent US8518859B2, “Method for increasing yield of staple food crop” (National University Corporation Shizuoka University, priority 2009, dated 2013).

Tests used:
Format in all cases: in vivo, rice (genus Oryza)
[1] = test system: rice (Nipponbare); test: Yield-increasing effect in soil culture of rice 2 (Example 3); conditions: n=6
Experimental: Soil culture was carried out from Jun. 10, 2009 to Sep. 29, 2009 in the same manner as in Example 1, except that seedlings of rice (Nipponbare) obtained by a 30-day cultivation were transplanted one by one to a soil (in 1/5000-a pot) which contains a fertilizer containing N (1,440 mg), P2O5 (12 mg), K2O (760 mg) and CaO (806 mg).
Water and nutrients were supplied once a day. As the medium used for the addition, the culture medium for the AHX (5 μM)-treated section, the culture medium for the ICA (2 μM)-treated section and the culture medium the control section were respectively used in the AHX (5 μM)-treated section, the ICA (2 μM)-treated section and the control section. It is noted here that, unlike the case of hydroponic culture, the culture medium was not replaced.
The cereal crops obtained by the soil culture were dried for 2 weeks and the following items were measured: brown rice mass; water content of brown rice; size and number of brown rice (per plant); panicle length; culm length; number of panicles; and mass of the above-ground part (n=6).

[2] = test system: Rice (cultivar: "Nipponbare"); test: Yield-increasing effect in hydroponic culture of rice (Example 1); conditions: AHX 50 μM, hydroponic culture 97 days, n=6
Experimental: Rice (cultivar: “Nipponbare”) was used in the test. Seeds thereof were sown in a nursery box, and after 20 days of cultivation, the resulting rice seedlings were transplanted one by one to a pot (1/5000-a) and cultivated for 1 week with tap water.
After the cultivation with tap water, the thus obtained rice plants were cultured in a culture medium added with the AHX (50 μM), which was synthesized in the above, in an outdoor environment over a period of 97 days starting in July.
During the periods from the 8th day to the 32nd day and the period from the 73rd day to the 97th day after the transplantation, the culture was carried out in a medium having a half concentration of the undiluted culture medium, and during the period from the 33rd day to the 72nd day, the undiluted culture medium was used.
Water and nutrients were supplied once every 3 days. As the medium used for the addition, the culture medium for the AHX-treated section and the culture medium for the control section were respectively used in the AHX-treated section and the control section. It is noted here, however, that the culture medium was replaced once a week in the case of hydroponic culture.
The cereal crops obtained by the culture were dried for 2 weeks and the following items were measured: brown rice mass; water content, carbon content and nitrogen content of brown rice; size and number of brown rice (per plant); leaf length; culm length; panicle length; number of panicles; tiller number; and mass of the above-ground and underground parts. Here, the size of brown rice means the mass per grain determined from the brown rice mass (g/100 brown rice grains) and the number of brown rice refers to a value obtained by dividing the brown rice weight (g/plant) by the brown rice weight (g/100 brown rice grains) (number of plants n=6).

[3] = test system: rice (Nipponbare); test: Yield-increasing effect in soil culture of rice 1 (Example 2); conditions: AHX 50 μM, soil culture 97 days, n=7
Experimental: Soil culture was carried out for 97 days starting in July in the same manner as in Example 1, except that seedlings of rice (Nipponbare) were transplanted one by one to a soil (in 1/5000-a pot) which contains a fertilizer containing N (1,440 mg), P2O5 (12 mg), K2O (760 mg) and CaO (806 mg).
Water and nutrients were supplied once a day. As the medium used for the addition, the culture medium for the AHX (50 μM)-treated section and the culture medium for the control section were respectively used in the AHX (50 μM)-treated section and the control section. It is noted here that, unlike the case of hydroponic culture, the culture medium was not replaced.
The cereal crops obtained by the soil culture were dried for 2 weeks and the following items were measured in the same manner as in Example 1: brown rice mass; water content, carbon content and nitrogen content of brown rice; size and number of brown rice (per plant); leaf length; culm length; panicle length; number of panicles; tiller number; and mass of the above-ground part (n=7).

Structure (SMILES)	Water content (%) of brown rice ([1]; 5 μM) [%]	Total carbon content (mg/g) of brown rice [2] [mg/g]	Total nitrogen content (mg/g) of brown rice [2] [mg/g]	Water content (%) of brown rice [2] [%]	Total carbon content (mg/g) of brown rice [3] [mg/g]	Total nitrogen content (mg/g) of brown rice [3] [mg/g]	Water content (%) of brown rice [3] [%]	Water content (%) of brown rice ([1]; 2 μM) [%]
O=c1[nH]nnc2nc[nH]c12 [AHX, 2-azahypoxanthine]	11.8	429	16.3	13.2	421	12.3	14.0	
NC(=O)c1c[nH]cn1 [ICA, imidazole-4-carboxamide]								11.8
